The target in the assay is connexin 30 (mouse (endogenous in mouse visual cortex)) (UniProt P70689). Put plainly: affinity purification with mass spectrometry.

By UniProt entry, the sequences of proteins in these tests, tags left out.
UniProt P70689: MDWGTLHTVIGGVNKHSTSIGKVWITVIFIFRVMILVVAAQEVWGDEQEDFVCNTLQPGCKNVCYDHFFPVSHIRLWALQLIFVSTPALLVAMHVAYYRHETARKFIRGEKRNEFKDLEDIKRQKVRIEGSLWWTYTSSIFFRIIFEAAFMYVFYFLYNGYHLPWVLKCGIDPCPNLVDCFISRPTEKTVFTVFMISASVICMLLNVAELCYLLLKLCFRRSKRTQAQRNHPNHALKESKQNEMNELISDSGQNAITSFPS
UniProt Q6URW6: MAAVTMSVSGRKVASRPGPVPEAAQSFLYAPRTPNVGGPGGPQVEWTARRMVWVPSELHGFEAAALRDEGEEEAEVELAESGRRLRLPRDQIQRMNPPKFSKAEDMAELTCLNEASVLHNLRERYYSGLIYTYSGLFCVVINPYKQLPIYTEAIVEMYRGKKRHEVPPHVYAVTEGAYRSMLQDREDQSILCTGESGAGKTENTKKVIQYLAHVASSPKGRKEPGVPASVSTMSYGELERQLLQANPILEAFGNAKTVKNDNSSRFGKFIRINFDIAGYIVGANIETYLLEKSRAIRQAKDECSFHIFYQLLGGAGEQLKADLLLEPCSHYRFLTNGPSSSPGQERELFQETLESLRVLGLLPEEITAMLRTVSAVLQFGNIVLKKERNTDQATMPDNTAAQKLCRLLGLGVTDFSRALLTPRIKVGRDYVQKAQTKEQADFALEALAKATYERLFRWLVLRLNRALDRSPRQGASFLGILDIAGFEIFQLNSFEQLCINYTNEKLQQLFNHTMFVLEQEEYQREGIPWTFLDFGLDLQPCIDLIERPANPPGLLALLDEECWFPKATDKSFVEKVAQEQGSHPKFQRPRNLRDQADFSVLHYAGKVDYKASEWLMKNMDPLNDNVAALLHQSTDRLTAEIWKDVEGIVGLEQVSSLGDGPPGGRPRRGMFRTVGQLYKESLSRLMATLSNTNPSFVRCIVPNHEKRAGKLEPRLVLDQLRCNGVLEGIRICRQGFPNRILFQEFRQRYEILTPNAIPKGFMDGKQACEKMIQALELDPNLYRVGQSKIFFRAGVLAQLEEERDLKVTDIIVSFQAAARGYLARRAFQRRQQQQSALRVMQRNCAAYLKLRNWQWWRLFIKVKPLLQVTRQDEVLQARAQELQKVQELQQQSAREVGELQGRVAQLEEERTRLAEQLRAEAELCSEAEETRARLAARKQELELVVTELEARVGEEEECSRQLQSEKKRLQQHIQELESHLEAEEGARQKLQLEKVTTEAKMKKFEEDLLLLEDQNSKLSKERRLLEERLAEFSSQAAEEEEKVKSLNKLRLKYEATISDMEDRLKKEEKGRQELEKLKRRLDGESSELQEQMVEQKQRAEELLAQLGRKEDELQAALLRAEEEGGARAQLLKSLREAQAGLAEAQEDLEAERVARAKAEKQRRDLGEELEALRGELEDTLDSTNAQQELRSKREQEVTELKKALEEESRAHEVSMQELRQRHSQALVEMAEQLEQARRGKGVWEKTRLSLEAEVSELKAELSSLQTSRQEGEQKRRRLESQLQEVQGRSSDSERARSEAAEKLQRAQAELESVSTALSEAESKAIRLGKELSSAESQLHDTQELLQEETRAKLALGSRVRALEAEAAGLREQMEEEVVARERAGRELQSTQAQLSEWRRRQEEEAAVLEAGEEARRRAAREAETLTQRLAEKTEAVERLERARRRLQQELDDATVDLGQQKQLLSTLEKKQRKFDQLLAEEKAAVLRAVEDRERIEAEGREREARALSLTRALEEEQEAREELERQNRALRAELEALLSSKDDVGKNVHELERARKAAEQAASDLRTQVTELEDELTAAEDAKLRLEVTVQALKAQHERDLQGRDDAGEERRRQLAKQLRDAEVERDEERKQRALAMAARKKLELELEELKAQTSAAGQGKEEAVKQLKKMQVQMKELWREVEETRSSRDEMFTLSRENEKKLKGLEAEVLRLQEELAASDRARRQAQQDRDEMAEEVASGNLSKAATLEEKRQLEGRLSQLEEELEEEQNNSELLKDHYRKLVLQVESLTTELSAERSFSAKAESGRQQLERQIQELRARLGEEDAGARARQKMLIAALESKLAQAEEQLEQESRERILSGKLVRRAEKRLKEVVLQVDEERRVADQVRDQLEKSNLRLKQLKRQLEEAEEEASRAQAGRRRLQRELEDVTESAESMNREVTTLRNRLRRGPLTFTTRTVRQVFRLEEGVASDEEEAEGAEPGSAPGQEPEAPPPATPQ
UniProt P70336: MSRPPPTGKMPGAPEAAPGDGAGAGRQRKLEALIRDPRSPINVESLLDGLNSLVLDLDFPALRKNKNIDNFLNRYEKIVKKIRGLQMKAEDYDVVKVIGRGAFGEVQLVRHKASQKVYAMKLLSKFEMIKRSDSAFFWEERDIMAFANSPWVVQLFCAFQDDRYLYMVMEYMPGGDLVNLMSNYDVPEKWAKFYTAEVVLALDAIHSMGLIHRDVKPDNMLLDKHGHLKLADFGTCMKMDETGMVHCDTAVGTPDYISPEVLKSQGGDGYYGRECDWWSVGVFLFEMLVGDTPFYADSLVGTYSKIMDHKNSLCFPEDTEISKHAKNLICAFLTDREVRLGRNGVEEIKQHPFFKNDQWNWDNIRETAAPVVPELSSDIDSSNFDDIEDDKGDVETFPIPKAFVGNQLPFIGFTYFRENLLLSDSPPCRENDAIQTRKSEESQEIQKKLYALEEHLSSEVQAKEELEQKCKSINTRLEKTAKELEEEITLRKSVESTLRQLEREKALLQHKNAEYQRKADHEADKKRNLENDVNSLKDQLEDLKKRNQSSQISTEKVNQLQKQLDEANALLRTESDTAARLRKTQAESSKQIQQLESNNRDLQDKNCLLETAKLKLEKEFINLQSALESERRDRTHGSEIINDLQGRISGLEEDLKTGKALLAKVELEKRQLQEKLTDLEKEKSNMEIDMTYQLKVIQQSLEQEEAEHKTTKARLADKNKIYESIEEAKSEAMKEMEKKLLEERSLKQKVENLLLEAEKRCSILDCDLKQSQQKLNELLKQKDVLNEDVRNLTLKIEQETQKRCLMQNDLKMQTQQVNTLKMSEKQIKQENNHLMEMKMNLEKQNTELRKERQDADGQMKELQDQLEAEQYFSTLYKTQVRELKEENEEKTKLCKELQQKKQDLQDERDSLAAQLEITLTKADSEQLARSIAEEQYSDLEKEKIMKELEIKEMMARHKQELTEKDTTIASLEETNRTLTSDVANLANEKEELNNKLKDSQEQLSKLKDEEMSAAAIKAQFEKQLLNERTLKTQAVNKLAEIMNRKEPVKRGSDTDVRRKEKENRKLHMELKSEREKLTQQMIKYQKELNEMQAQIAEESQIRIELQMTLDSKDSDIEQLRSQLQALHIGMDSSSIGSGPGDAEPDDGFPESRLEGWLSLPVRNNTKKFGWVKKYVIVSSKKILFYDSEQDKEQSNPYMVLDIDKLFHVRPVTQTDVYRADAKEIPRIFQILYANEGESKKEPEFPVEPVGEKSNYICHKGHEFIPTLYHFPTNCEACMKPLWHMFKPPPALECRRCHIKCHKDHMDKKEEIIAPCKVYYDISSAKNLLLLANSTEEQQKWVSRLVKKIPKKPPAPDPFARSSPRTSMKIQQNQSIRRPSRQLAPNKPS

These are yes or no findings as the source states them, for the method shown. Binding seen in cells or lysates may run through a third protein. A yes stands for co-enrichment or nearness to the bait. Other partners may have been found.

With Myosin 14 (from UniProt Q6URW6 1-2000), the binding entry is on record as “binds”. As to “Rho-associated protein kinase ROCK2 (from UniProt P70336 1-1388)”, the binding result is “binds”.
